Experimental data published in patent US20050266562.
For some assays here: Where cells or extracts were used, other partners may take part. For some assays here: For at least one entry, the source does not settle the construct or the ends of the probe. For some assays here: Negatives hold for the conditions tested. For some assays here: Protein sequences can lack the tags named with them.

Chains of the proteins cited; added tags and fusions are not shown. Lines headed by an entry give the natural chain unless they say otherwise; changes in a name come on top. Residues count along the entry.
UniProt P08047, 2-785: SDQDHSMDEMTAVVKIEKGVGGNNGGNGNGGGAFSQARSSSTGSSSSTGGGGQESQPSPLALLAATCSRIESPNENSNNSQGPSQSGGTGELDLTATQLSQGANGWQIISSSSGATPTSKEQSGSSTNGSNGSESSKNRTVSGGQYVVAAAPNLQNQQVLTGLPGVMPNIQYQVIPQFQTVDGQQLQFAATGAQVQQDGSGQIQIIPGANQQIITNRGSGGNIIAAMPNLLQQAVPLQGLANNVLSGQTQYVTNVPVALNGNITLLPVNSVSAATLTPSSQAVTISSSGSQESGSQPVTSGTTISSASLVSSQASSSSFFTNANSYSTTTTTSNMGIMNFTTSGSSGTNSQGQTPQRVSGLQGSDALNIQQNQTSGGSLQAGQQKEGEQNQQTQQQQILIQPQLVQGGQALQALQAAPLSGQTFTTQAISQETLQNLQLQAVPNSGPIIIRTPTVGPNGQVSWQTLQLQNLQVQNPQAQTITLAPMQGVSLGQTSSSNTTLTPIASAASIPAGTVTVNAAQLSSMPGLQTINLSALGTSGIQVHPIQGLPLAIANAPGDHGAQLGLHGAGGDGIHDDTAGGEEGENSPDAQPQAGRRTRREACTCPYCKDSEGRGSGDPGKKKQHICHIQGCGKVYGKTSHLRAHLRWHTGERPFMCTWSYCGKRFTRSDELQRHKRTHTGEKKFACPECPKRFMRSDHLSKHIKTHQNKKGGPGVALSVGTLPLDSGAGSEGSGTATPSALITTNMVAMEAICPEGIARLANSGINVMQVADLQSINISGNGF
UniProt Q02447: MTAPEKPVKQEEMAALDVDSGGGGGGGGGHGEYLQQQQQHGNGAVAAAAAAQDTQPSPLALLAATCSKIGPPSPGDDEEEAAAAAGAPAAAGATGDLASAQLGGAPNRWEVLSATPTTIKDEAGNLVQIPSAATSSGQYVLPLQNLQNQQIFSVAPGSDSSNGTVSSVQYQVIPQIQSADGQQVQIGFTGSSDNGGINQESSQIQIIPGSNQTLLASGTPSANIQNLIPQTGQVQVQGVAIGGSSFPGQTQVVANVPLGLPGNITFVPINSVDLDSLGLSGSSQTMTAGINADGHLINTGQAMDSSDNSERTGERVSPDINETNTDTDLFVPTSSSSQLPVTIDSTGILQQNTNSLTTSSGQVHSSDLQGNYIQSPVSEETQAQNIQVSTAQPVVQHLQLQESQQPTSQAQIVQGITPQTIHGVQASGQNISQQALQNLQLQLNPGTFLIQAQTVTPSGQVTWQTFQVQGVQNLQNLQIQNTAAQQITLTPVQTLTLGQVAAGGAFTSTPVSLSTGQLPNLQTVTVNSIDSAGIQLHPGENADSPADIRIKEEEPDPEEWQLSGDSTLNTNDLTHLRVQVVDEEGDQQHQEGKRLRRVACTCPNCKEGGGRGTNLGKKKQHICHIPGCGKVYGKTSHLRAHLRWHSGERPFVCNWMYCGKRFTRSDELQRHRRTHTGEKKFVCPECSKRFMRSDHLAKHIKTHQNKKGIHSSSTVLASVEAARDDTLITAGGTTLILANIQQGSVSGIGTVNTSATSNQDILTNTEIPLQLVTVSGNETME

Tests used:
[1] = biological target: Sp1 (UniProt P08047); experiment: EMSA; details: THP1 nuclear extract complex supershifted with anti-Sp1 antibody, protein in an extract, protein details: endogenous
[2] = biological target: Sp3 (UniProt Q02447); experiment: activity in cells; details: results similar to -591/+74; protein in cells
[3] = biological target: T1, Sp2 (UniProt Q02086); experiment: activity in cells; details: results similar to -591/+74; protein in cells
T1 sequence (looked up, limits assumed): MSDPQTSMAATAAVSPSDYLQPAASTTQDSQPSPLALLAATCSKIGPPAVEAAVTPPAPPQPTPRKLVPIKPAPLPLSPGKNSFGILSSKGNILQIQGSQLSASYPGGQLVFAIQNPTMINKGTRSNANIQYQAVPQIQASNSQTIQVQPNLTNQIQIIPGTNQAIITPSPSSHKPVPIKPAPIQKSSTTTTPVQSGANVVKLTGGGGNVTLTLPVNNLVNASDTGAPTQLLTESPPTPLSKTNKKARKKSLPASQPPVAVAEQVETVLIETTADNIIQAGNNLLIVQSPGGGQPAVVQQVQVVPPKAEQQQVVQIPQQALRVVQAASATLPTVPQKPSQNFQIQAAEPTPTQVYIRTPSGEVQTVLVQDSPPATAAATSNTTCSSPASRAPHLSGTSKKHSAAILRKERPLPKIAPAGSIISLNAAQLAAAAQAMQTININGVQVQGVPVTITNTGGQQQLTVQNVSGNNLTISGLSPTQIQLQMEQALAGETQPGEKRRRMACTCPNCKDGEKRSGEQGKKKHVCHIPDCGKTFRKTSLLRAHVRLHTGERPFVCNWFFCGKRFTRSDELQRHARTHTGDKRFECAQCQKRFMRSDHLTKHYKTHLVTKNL

[4] = biological target: Sp1 (UniProt P08047); experiment: activity in cells; details: results similar to -591/+74; protein in cells
[5] = biological target: Sp1 (UniProt P08047); experiment: footprint; details: DNase I; purified Sp1 protects -63 to -40; 6.25 mM MgCl2, 50 mM KCl, pH 8.0, room temp; purified recombinant protein; protein details: purified Sp1 protein, Promega; label: 32P

## CGCCCCTCCTACCCACTGTGCCCC (double strand) [CD11d -63/-40 probe]
[1]
  binding result: binds

## GTCCATTCTCCTCTGGAGGGGCTCTGCTTTTTGAAACCACACCCTGGCCTAGCTCCCCTTCTCCCTGCCTCTCTGCAGGCTCACATCCACATGCCAAGACCTCTGCAGCCATTCTGCTTCCTGTCCTTCCACTCCTGTGGGACCTCAGAGAGCTACGGGGCTCCCTGGGTACCAACTGGCTCCTGAGGCCTGGGGGAGGGTGGTCTTCTGGGAGAAGGAAGCCAGGTCCCTGCAGGTTGTGGAGGGGGACAGAATGAGGGTTTTTCCCCAGGATGTTGTTGGCCCCTGCCCCCACTTCTGTTCCATAATTAACCACGCCCCTCCTACCCACTGTGCCCCTCTTCCTGCTGTGTGGAGGCCCTGAATCATTATTTTAACTACCCCCTGGGAGGGTGAGCACCTTCTGTGCTCTGTCCCCAACCTTCCACTTCCCCTCAACGCGCTGCTCAGGG (double strand) [CD11d promoter -378/+74 (luc reporter; printed -378/+75)]
[2]
  activity on this sequence: not active
[3]
  activity on this sequence: not active
[4]
  activity on this sequence: active

## TTCTGGGAGAAGGAAGCCAGGTCCCTGCAGGTTGTGGAGGGGGACAGAATGAGGGTTTTTCCCCAGGATGTTGTTGGCCCCTGCCCCCACTTCTGTTCCATAATTAACCACGCCCCTCCTACCCACTGTGCCCCTCTTCCTGCTGTGTGGAGGCCCTGAATCATTATTTTAACTACCCCCTGGGAGGGTGAGCACCTTCTGTGCTCTGTCCCCAACCTTCCACTTCCCCTCAACGCGCTGCTCAGGG (double strand) [CD11d promoter -173/+74]
[5]
  binding result: binds
